{"source": "patent US12797409", "about": "“Heparan sulfate mimetics to improve glucose clearance” (THE REGENTS OF THE UNIVERSITY OF CALIFORNIA)", "biological_target": "T1, Alpl (alkaline phosphatase) (Mus musculus) (UniProt P09242)", "T1 sequence (looked up, limits assumed)": "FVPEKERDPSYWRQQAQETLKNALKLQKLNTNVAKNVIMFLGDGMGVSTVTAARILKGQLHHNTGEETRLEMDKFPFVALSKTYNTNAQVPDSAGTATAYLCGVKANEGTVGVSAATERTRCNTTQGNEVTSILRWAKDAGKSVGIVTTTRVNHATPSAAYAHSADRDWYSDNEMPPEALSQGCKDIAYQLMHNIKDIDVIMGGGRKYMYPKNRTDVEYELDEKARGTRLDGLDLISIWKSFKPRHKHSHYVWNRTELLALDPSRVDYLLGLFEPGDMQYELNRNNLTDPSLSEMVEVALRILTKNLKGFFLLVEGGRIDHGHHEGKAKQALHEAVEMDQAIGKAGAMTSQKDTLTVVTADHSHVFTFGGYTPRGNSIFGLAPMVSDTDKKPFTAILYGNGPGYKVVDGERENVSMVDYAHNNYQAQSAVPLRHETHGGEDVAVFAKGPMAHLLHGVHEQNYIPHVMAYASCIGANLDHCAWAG", "assay": "flow cytometry", "settings": "5'-biotin, bound to streptavidin carrying biotinylated heparin (1:1:1); no significant cell surface binding to Ext1-/- mouse ES cells, 0-200 nM, 40 min in suspension; protein on the cell surface; protein details: endogenous on Ext1-/- mouse embryonic stem cells; label: AF488 (on streptavidin); single-stranded DNA; variant of Aptamer 19S", "note": "At least one result comes from cells or an extract, where the contact may be indirect. No signal at the amounts used counts as a negative. Protein sequences can lack the tags named with them."}
{"sequence": "AGGTCAGATGGTGGATTCGAAGTGGGAGATGCGAGTGTACCTATGCGTG [Hep-SA-Scr (heparin-streptavidin-scrambled aptamer chimera)]", "values": [{"measurement": "binding result", "result": "no binding"}]}
